In paper PMC10702356 one finds binding data, which are given here for 1 substance.

In the experiment the target is T1, HopD1 fused to the epitope haemagglutinin (HopD1-HA) (Pseudomonas syringae pv. tomato DC3000) (UniProt Q888Y8).
T1 sequence: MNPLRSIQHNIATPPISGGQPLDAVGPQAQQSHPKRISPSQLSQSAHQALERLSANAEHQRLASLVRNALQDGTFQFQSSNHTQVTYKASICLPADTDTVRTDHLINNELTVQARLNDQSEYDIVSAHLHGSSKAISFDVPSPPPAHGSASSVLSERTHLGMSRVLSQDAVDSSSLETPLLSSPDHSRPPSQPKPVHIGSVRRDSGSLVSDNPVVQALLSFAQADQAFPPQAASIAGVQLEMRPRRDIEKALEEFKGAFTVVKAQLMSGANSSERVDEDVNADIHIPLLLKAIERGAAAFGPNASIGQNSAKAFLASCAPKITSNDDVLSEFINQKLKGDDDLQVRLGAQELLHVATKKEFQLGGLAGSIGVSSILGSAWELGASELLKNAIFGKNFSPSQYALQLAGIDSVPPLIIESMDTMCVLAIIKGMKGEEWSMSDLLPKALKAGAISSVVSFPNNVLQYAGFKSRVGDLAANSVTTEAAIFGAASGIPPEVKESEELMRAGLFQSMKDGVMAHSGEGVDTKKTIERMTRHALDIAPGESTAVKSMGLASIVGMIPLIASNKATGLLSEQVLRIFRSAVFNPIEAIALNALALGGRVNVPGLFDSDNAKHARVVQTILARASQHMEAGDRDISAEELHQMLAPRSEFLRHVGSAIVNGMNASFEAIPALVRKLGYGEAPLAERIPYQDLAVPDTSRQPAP
Description: co-IP.

These are yes or no findings as the source states them, for the method shown. Binding seen in cells or lysates may run through a third protein. Binding can be weak; no strength is given. Tags and fused reporters may be left off the sequences shown.

On to “AtNHR2B fused to the green fluorescent protein (AtNHR2B-GFP) (Arabidopsis thaliana)”, for which the binding entry is reported as “binds”.
